This note sets out measurements from PMC4145083.

The chains behind the UniProt entries cited, without tags or fusion partners. Residues count along the entry.
UniProt Q9Y6N7, residues 26-1651: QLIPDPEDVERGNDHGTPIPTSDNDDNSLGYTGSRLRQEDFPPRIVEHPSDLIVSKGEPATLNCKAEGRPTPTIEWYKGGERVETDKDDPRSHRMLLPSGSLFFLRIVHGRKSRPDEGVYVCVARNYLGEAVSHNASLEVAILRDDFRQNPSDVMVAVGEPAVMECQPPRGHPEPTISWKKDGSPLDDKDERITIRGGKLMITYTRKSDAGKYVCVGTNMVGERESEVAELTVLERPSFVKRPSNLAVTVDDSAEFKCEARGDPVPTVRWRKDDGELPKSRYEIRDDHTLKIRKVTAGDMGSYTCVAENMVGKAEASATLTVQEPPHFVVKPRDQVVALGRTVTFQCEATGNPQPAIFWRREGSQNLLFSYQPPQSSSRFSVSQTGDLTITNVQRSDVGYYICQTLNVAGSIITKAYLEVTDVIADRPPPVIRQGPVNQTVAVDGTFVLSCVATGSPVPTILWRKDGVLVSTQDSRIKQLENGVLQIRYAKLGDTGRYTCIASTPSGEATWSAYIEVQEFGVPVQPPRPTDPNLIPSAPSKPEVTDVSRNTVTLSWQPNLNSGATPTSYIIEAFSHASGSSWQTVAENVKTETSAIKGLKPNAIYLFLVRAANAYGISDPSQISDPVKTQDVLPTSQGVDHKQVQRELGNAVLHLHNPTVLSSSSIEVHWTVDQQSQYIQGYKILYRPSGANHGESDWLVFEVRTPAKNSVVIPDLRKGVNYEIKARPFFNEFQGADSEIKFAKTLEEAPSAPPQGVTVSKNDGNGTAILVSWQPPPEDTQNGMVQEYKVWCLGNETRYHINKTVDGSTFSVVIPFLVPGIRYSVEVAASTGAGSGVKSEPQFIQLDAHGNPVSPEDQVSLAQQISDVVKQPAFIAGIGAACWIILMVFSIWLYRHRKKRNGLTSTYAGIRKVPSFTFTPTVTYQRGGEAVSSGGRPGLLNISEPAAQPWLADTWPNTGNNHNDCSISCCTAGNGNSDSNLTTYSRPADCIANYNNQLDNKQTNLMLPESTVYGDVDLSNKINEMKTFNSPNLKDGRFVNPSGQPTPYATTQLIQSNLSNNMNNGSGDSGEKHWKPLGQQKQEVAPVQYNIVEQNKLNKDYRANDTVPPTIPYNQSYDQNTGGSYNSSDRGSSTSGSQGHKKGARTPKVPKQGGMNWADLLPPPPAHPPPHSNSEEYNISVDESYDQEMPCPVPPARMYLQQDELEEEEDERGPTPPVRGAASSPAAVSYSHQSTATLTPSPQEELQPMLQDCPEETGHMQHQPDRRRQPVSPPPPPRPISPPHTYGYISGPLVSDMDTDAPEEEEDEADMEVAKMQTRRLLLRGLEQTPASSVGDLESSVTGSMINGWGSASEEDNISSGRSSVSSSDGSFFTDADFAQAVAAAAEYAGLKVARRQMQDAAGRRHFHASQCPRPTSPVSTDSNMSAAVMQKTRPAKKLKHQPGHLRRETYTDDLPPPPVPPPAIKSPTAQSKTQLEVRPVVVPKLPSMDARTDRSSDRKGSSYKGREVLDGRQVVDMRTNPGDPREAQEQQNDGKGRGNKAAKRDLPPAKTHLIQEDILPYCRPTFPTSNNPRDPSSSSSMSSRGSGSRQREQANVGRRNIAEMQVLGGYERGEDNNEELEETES

This assay deals with Robo1 (Roundabout 1) (human (endogenous in H1299)) (UniProt Q9Y6N7). The assay is described as follows: co-IP; endogenous proteins; H1299 cell lysates (0.5% NP-40, 50 mmol/L Tris pH 7.5, 150 mmol/L NaCl, 1 mmol/L EDTA) precipitated with anti-Robo1 or control IgG, blotted with anti-USP33; cells in the presence of mock-control or Slit.

No constants are given. Whether binding was seen depends on the method and setting. Binding seen in cells or lysates may run through a third protein. Some binding calls cover weakened binding; strength is not graded here.

B1: Ubiquitin specific protease 33 (USP33) (enzyme, UniProt Q8TEY7 1-942)
chain: MTGSNSHITILTLKVLPHFESLGKQEKIPNKMSAFRNHCPHLDSVGEITKEDLIQKSLGTCQDCKVQGPNLWACLENRCSYVGCGESQVDHSTIHSQETKHYLTVNLTTLRVWCYACSKEVFLDRKLGTQPSLPHVRQPHQIQENSVQDFKIPSNTTLKTPLVAVFDDLDIEADEEDELRARGLTGLKNIGNTCYMNAALQALSNCPPLTQFFLDCGGLARTDKKPAICKSYLKLMTELWHKSRPGSVVPTTLFQGIKTVNPTFRGYSQQDAQEFLRCLMDLLHEELKEQVMEVEEDPQTITTEETMEEDKSQSDVDFQSCESCSNSDRAENENGSRCFSEDNNETTMLIQDDENNSEMSKDWQKEKMCNKINKVNSEGEFDKDRDSISETVDLNNQETVKVQIHSRASEYITDVHSNDLSTPQILPSNEGVNPRLSASPPKSGNLWPGLAPPHKKAQSASPKRKKQHKKYRSVISDIFDGTIISSVQCLTCDRVSVTLETFQDLSLPIPGKEDLAKLHSSSHPTSIVKAGSCGEAYAPQGWIAFFMEYVKRFVVSCVPSWFWGPVVTLQDCLAAFFARDELKGDNMYSCEKCKKLRNGVKFCKVQNFPEILCIHLKRFRHELMFSTKISTHVSFPLEGLDLQPFLAKDSPAQIVTYDLLSVICHHGTASSGHYIAYCRNNLNNLWYEFDDQSVTEVSESTVQNAEAYVLFYRKSSEEAQKERRRISNLLNIMEPSLLQFYISRQWLNKFKTFAEPGPISNNDFLCIHGGVPPRKAGYIEDLVLMLPQNIWDNLYSRYGGGPAVNHLYICHTCQIEAEKIEKRRKTELEIFIRLNRAFQKEDSPATFYCISMQWFREWESFVKGKDGDPPGPIDNTKIAVTKCGNVMLRQGADSGQISEETWNFLQSIYGGGPEVILRPPVVHVDPDILQAEEKIEVETRSL
Regarding B1, the binding result is recorded as “binds”.
